For this assay, the system named is A375. Description: SRB cytotoxicity assay, A375 human melanoma cells. In kind it is cell-based. The note with it: Table 14C; read-out: IC50 ± SEM A375 (converted).

The text below walks through data of US12187720B2, “Compounds for treatment of cancer” (ONCTERNAL THERAPEUTICS, INC., priority 2010, dated 2025).

Structures are written as SMILES.

The IC50 is the concentration that inhibits the measured activity by half. On to `COc1cc2c(c(OC)c1OC)-c1ccc(OC)c(=O)cc1[C@@H](NC(C)=O)CC2` [colchicine, Colchicine, reference compound], for which the IC50 is 24 nM.
